Laboratory results: paper PMC10823590
These are yes or no findings as the source states them, for the method shown. Binding calls can cover weak binding; strength is not graded here.

Sequences of proteins named here, by UniProt entry; tags and fusion partners are left off. A change or cut given only in a name is not applied to a line headed by its entry. Residues count along the entry.
UniProt Q01638, residues 19-321: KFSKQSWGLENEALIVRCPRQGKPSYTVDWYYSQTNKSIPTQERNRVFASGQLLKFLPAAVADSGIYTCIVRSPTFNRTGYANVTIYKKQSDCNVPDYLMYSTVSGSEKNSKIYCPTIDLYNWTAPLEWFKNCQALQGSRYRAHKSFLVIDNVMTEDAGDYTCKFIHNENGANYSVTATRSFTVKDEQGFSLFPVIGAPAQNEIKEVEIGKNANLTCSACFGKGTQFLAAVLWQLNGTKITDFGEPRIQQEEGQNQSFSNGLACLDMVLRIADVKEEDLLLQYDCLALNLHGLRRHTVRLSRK
UniProt O95760: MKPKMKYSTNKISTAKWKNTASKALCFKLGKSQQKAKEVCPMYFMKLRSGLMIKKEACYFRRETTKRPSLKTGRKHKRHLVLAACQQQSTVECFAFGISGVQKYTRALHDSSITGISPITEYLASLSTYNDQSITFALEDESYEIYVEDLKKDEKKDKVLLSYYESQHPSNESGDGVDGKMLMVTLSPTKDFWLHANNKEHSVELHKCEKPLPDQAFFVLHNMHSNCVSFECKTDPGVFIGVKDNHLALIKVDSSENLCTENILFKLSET

Target: ST2 receptor (isolated protein used in ELISA and in the fluorescence emission assay) (UniProt Q01638)
Assay: ELISA; ELISA binding assays of IL-33 variants to ST2 or HpARI; values normalized to the binding of wild-type IL-33, n = 3

binding: binds
Substance: wild-type IL-33 (interleukin-33) (from UniProt O95760) (ligand)
